Data published in publication doi:10.1101/2022.11.24.517835.
Read-outs that look alike come from different tables or passages of the source. Results are given in words; binding and its absence hold for the method and conditions named. In cells and extracts the contact can be indirect. These calls come from enrichment with a bait or labelling near it, and not all partners need be listed. Sequences can lack the tags named with a protein.

Columns and labels:
[1] = target: T1, SWI3C-GFP (Arabidopsis thaliana) (UniProt Q9XI07); assay: affinity purification with mass spectrometry
T1 sequence: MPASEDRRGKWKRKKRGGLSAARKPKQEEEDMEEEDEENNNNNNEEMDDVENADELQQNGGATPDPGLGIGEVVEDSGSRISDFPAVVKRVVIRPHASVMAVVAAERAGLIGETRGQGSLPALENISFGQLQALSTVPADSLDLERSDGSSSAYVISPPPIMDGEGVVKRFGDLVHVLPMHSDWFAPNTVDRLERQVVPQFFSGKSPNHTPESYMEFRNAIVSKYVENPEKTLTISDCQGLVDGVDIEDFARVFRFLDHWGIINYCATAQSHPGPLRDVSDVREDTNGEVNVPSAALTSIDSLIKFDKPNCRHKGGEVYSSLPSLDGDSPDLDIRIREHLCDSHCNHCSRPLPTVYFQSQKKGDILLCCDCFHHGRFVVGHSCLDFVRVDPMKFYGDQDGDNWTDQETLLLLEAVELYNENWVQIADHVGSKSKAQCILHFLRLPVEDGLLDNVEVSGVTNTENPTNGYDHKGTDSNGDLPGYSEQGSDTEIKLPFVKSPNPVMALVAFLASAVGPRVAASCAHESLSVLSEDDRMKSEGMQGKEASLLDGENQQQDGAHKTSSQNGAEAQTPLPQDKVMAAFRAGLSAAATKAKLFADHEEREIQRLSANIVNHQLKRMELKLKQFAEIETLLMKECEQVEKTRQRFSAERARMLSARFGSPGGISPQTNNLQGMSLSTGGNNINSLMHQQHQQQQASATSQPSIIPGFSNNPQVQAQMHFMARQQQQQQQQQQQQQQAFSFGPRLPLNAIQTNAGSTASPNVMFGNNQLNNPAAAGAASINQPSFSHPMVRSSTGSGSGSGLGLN

[2] = target: T1, SWI3C-GFP (Arabidopsis thaliana); assay: affinity purification with mass spectrometry; remark: listed apart in the source

| Binder | binding [1] | binding [2] |
| --- | --- | --- |
| actin-related protein 4 (ARP4) (protein, UniProt Q84M92 1-441) MYGGDEVSAIVVDLGSHTCKAGYAGEDAPKAVFPSVIGAVDGVEAMDVDVDSTKTNSNSEDSKTESEKEKSKRKLYVGSQAMSYRRDHMEVLSPIKDGIVSDWDLVDNIWEHAFKSCLMIDPTEHPMLLAEPPLNTQQQREKAAELMFEKYKVPALFMAKNPVLTSFATGRATSLVVDCGGGSTTISPVHDGYVLQKAVVSSPLGGEFLTDCLLKSLESKGIKIRPRYSFKRKEVRAGEFQVEDVDIPDTTESYKLFCQRMIVGDIKDSICRVPDTPYDDKSYSNIPTTSYELPDGQTLEIGADRFKVPDVMFNPSIVQTIPGMEKYAEMIPSVRGLPHMVMESINKCDVDIRRELYSSILLAGGTSSMQQLKERLEKDLIEESPHSARVKVLASGNTTERRFSVWIGGSILASLGSFQQMWFSKSEYEEHGASYIQRKCP | binds weakly | binds |
| actin-related protein 7 (ARP7) (protein, UniProt Q8L4Y5 1-363) MEALVVDAGSKFLKAGAAIPDQSPAMIIPSQMKRMVDDGSSSADNPTTVFEDVTLDPIERGLIRDWDAMEDLLRYVVYTGLGWEEGNEGNILFTDPLCTPKAIREQLVQLMFETFNVSGFYASEQAVLSLYAVGRISGCTVDIGHGKIDIAPVLEGAVQHIASKRFELGGTELTKLFAQELGKTNPSMNLSMSDVEKLKEQYANCAEDEIAYKKTQNCEIEQHTLPDGQVISIGRERYSVGEALFQPSILGLEEHGIVEQLVRIISTVSSENHRQLLENTVLCGGTTSMTGFESRFQKEANLCSSAIRPTLVKPPEYMPENLGMYSAWVGGAILAKVVFPQNQHVTKADYDETGPSVVHRKCF | binds weakly | binds |
